Earlier results, collected in patent US8575125B2, “Selective inhibitors of CB2 receptor expression and/or activity for the treatment of obesity and obesity-related disorders” (Institut National de la Sante et de la Recherche Medicale …, priority 2007, dated 2013).
Some of these results come from one statement about several compounds together. Some compounds share one range, which may span the group rather than tell each member.

Settings: drug compared to placebo; cited from earlier work

CCCCCCCCCCC[C@@H](C[C@@H]1OC(=O)[C@H]1CCCCCC)OC(=O)[C@H](CC(C)C)NC=O [orlistat]
weight loss: 5%-10%
